Test results from publication doi:10.1101/2025.10.30.684516.

The chains behind the UniProt entries cited, without tags or fusion partners.
UniProt P08670: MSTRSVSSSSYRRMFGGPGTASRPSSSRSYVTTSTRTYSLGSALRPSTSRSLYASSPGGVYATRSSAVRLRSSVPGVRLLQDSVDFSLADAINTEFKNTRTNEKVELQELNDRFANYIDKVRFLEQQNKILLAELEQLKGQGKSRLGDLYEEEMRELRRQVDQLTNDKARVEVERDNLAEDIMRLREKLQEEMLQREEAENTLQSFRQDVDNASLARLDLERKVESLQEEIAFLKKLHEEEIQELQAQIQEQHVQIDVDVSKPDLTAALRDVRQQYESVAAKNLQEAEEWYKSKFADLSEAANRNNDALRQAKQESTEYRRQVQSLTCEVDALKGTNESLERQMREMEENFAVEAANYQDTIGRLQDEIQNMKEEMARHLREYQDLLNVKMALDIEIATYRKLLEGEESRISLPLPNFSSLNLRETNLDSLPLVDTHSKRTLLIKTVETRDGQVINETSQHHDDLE

B1: RAP2B (protein, UniProt P61225 1-183)
chain: MREYKVVVLGSGGVGKSALTVQFVTGSFIEKYDPTIEDFYRKEIEVDSSPSVLEILDTAGTEQFASMRDLYIKNGQGFILVYSLVNQQSFQDIKPMRDQIIRVKRYERVPMILVGNKVDLEGEREVSYGEGKALAEEWSCPFMETSAKNKASVDELFAEIVRQMNYAAQPNGDEGCCSACVIL
B2: LAS1L (protein, UniProt Q9Y4W2 1-734)
chain: MSWESGAGPGLGSQGMDLVWSAWYGKCVKGKGSLPLSAHGIVVAWLSRAEWDQVTVYLFCDDHKLQRYALNRITVWRSRSGNELPLAVASTADLIRCKLLDVTGGLGTDELRLLYGMALVRFVNLISERKTKFAKVPLKCLAQEVNIPDWIVDLRHELTHKKMPHINDCRRGCYFVLDWLQKTYWCRQLENSLRETWELEEFREGIEEEDQEEDKNIVVDDITEQKPEPQDDGKSTESDVKADGDSKGSEEVDSHCKKALSHKELYERARELLVSYEEEQFTVLEKFRYLPKAIKAWNNPSPRVECVLAELKGVTCENREAVLDAFLDDGFLVPTFEQLAALQIEYEDGQTEVQRGEGTDPKSHKNVDLNDVLVPKPFSQFWQPLLRGLHSQNFTQALLERMLSELPALGISGIRPTYILRWTVELIVANTKTGRNARRFSAGQWEARRGWRLFNCSASLDWPRMVESCLGSPCWASPQLLRIIFKAMGQGLPDEEQEKLLRICSIYTQSGENSLVQEGSEASPIGKSPYTLDSLYWSVKPASSSFGSEAKAQQQEEQGSVNDVKEEEKEEKEVLPDQVEEEEENDDQEEEEEDEDDEDDEEEDRMEVGPFSTGQESPTAENARLLAQKRGALQGSAWQVSSEDVRWDTFPLGRMPGQTEDPAELMLENYDTMYLLDQPVLEQRLEPSTCKTDTLGLSCGVGSGNCSNSSSSNFEGLLWSQGQLHGLKTGLQLF
B3: AQR (protein, UniProt O60306 1-1485)
chain: MAAPAQPKKIVAPTVSQINAEFVTQLACKYWAPHIKKKSPFDIKVIEDIYEKEIVKSRFAIRKIMLLEFSQYLENYLWMNYSPEVSSKAYLMSICCMVNEKFRENVPAWEIFKKKPDHFPFFFKHILKAALAETDGEFSLHEQTVLLLFLDHCFNSLEVDLIRSQVQQLISLPMWMGLQLARLELELKKTPKLRKFWNLIKKNDEKMDPEAREQAYQERRFLSQLIQKFISVLKSVPLSEPVTMDKVHYCERFIELMIDLEALLPTRRWFNTILDDSHLLVHCYLSNLVRREEDGHLFSQLLDMLKFYTGFEINDQTGNALTENEMTTIHYDRITSLQRAAFAHFPELYDFALSNVAEVDTRESLVKFFGPLSSNTLHQVASYLCLLPTLPKNEDTTFDKEFLLELLVSRHERRISQIQQLNQMPLYPTEKIIWDENIVPTEYYSGEGCLALPKLNLQFLTLHDYLLRNFNLFRLESTYEIRQDIEDSVSRMKPWQSEYGGVVFGGWARMAQPIVAFTVVEVAKPNIGENWPTRVRADVTINLNVRDHIKDEWEGLRKHDVCFLITVRPTKPYGTKFDRRRPFIEQVGLVYVRGCEIQGMLDDKGRVIEDGPEPRPNLRGESRTFRVFLDPNQYQQDMTNTIQNGAEDVYETFNIIMRRKPKENNFKAVLETIRNLMNTDCVVPDWLHDIILGYGDPSSAHYSKMPNQIATLDFNDTFLSIEHLKASFPGHNVKVTVEDPALQIPPFRITFPVRSGKGKKRKDADVEDEDTEEAKTLIVEPHVIPNRGPYPYNQPKRNTIQFTHTQIEAIRAGMQPGLTMVVGPPGTGKTDVAVQIISNIYHNFPEQRTLIVTHSNQALNQLFEKIMALDIDERHLLRLGHGEEELETEKDFSRYGRVNYVLARRIELLEEVKRLQKSLGVPGDASYTCETAGYFFLYQVMSRWEEYISKVKNKGSTLPDVTEVSTFFPFHEYFANAPQPIFKGRSYEEDMEIAEGCFRHIKKIFTQLEEFRASELLRSGLDRSKYLLVKEAKIIAMTCTHAALKRHDLVKLGFKYDNILMEEAAQILEIETFIPLLLQNPQDGFSRLKRWIMIGDHHQLPPVIKNMAFQKYSNMEQSLFTRFVRVGVPTVDLDAQGRARASLCNLYNWRYKNLGNLPHVQLLPEFSTANAGLLYDFQLINVEDFQGVGESEPNPYFYQNLGEAEYVVALFMYMCLLGYPADKISILTTYNGQKHLIRDIINRRCGNNPLIGRPNKVTTVDRFQGQQNDYILLSLVRTRAVGHLRDVRRLVVAMSRARLGLYIFARVSLFQNCFELTPAFSQLTARPLHLHIIPTEPFPTTRKNGERPSHEVQIIKNMPQMANFVYNMYMHLIQTTHHYHQTLLQLPPAMVEEGEEVQNQETELETEEEAMTVQADIIPSPTDTSCRQETPAFQTDTTPSETGATSTPEAIPALSETTPTVVGAVSAPAEANTPQDATSAPEETK
B4: GBE1 (protein, UniProt Q04446 1-702)
chain: MAAPMTPAARPEDYEAALNAALADVPELARLLEIDPYLKPYAVDFQRRYKQFSQILKNIGENEGGIDKFSRGYESFGVHRCADGGLYCKEWAPGAEGVFLTGDFNGWNPFSYPYKKLDYGKWELYIPPKQNKSVLVPHGSKLKVVITSKSGEILYRISPWAKYVVREGDNVNYDWIHWDPEHSYEFKHSRPKKPRSLRIYESHVGISSHEGKVASYKHFTCNVLPRIKGLGYNCIQLMAIMEHAYYASFGYQITSFFAASSRYGTPEELQELVDTAHSMGIIVLLDVVHSHASKNSADGLNMFDGTDSCYFHSGPRGTHDLWDSRLFAYSSWEILRFLLSNIRWWLEEYRFDGFRFDGVTSMLYHHHGVGQGFSGDYSEYFGLQVDEDALTYLMLANHLVHTLCPDSITIAEDVSGMPALCSPISQGGGGFDYRLAMAIPDKWIQLLKEFKDEDWNMGDIVYTLTNRRYLEKCIAYAESHDQALVGDKSLAFWLMDAEMYTNMSVLTPFTPVIDRGIQLHKMIRLITHGLGGEGYLNFMGNEFGHPEWLDFPRKGNNESYHYARRQFHLTDDDLLRYKFLNNFDRDMNRLEERYGWLAAPQAYVSEKHEGNKIIAFERAGLLFIFNFHPSKSYTDYRVGTALPGKFKIVLDSDAAEYGGHQRLDHSTDFFSEAFEHNGRPYSLLVYIPSRVALILQNVDLPN
B5: PYGL (protein, UniProt P06737 1-847)
chain: MAKPLTDQEKRRQISIRGIVGVENVAELKKSFNRHLHFTLVKDRNVATTRDYYFALAHTVRDHLVGRWIRTQQHYYDKCPKRVYYLSLEFYMGRTLQNTMINLGLQNACDEAIYQLGLDIEELEEIEEDAGLGNGGLGRLAACFLDSMATLGLAAYGYGIRYEYGIFNQKIRDGWQVEEADDWLRYGNPWEKSRPEFMLPVHFYGKVEHTNTGTKWIDTQVVLALPYDTPVPGYMNNTVNTMRLWSARAPNDFNLRDFNVGDYIQAVLDRNLAENISRVLYPNDNFFEGKELRLKQEYFVVAATLQDIIRRFKASKFGSTRGAGTVFDAFPDQVAIQLNDTHPALAIPELMRIFVDIEKLPWSKAWELTQKTFAYTNHTVLPEALERWPVDLVEKLLPRHLEIIYEINQKHLDRIVALFPKDVDRLRRMSLIEEEGSKRINMAHLCIVGSHAVNGVAKIHSDIVKTKVFKDFSELEPDKFQNKTNGITPRRWLLLCNPGLAELIAEKIGEDYVKDLSQLTKLHSFLGDDVFLRELAKVKQENKLKFSQFLETEYKVKINPSSMFDVQVKRIHEYKRQLLNCLHVITMYNRIKKDPKKLFVPRTVIIGGKAAPGYHMAKMIIKLITSVADVVNNDPMVGSKLKVIFLENYRVSLAEKVIPATDLSEQISTAGTEASGTGNMKFMLNGALTIGTMDGANVEMAEEAGEENLFIFGMRIDDVAALDKKGYEAKEYYEALPELKLVIDQIDNGFFSPKQPDLFKDIINMLFYHDRFKVFADYEAYVKCQDKVSQLYMNPKAWNTMVLKNIAASGKFSSDRTIKEYAQNIWNVEPSDLKISLSNESNKVNGN
B6: SMS (protein, UniProt P52788 1-366)
chain: MAAARHSTLDFMLGAKADGETILKGLQSIFQEQGMAESVHTWQDHGYLATYTNKNGSFANLRIYPHGLVLLDLQSYDGDAQGKEEIDSILNKVEERMKELSQDSTGRVKRLPPIVRGGAIDRYWPTADGRLVEYDIDEVVYDEDSPYQNIKILHSKQFGNILILSGDVNLAESDLAYTRAIMGSGKEDYTGKDVLILGGGDGGILCEIVKLKPKMVTMVEIDQMVIDGCKKYMRKTCGDVLDNLKGDCYQVLIEDCIPVLKRYAKEGREFDYVINDLTAVPISTSPEEDSTWEFLRLILDLSMKVLKQDGKYFTQGNCVNLTEALSLYEEQLGRLYCPVEFSKEIVCVPSYLELWVFYTVWKKAKP

Target: VIM-APEX2-GFP (UniProt P08670)
Test: proximity labelling

binding, binds:
B1, B2, B3, B4, B5, B6

Results are given in words; binding and its absence hold for the method and conditions named. In cells and extracts the contact can be indirect. These calls come from enrichment with a bait or labelling near it, and not all partners need be listed.
